According to publication PMC11197154:
Results are given in words; binding and its absence hold for the method and conditions named. Binding seen in cells or lysates may run through a third protein. Some binding calls cover weakened binding; strength is not graded here.

The chains behind the UniProt entries cited, without tags or fusion partners.
UniProt P46460: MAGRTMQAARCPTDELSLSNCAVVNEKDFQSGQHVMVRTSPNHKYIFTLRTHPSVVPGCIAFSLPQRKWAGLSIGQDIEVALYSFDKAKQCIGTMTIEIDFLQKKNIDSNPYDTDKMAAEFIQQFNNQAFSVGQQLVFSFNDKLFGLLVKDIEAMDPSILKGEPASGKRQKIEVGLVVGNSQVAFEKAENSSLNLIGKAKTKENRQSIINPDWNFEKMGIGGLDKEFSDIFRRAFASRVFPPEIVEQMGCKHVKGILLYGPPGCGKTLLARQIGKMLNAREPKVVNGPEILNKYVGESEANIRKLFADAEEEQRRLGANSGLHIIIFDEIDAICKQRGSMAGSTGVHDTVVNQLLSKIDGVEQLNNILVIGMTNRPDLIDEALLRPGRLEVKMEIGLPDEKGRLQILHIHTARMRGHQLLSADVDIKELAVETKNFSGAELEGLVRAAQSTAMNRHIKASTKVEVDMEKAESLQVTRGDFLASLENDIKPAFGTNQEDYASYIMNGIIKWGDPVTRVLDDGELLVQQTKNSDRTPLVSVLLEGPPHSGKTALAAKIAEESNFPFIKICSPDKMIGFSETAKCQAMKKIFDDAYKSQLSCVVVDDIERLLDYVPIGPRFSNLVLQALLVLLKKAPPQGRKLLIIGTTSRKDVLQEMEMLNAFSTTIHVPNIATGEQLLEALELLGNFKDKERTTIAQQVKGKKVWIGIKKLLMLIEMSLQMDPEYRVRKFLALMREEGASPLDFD

Target: T1, acid-sensing ion channel 1a (ASIC1a) (mouse (endogenous in C57BL/6J brain)) (UniProt Q6NXK8)
T1 sequence: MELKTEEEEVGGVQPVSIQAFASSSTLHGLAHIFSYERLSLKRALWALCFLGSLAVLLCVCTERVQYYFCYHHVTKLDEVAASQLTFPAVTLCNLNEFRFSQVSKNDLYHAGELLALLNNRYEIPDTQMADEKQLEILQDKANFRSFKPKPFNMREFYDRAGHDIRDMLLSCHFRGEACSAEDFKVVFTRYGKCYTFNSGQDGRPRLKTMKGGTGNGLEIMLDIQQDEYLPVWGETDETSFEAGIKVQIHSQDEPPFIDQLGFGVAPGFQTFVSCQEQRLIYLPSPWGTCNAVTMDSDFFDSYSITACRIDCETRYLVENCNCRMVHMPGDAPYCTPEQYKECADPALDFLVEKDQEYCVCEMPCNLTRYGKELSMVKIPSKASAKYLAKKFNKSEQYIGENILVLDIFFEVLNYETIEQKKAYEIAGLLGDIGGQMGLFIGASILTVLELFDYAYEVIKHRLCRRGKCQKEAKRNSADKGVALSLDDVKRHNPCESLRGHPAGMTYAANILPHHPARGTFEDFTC
Assay: co-IP; ASIC1a precipitated from mouse brain lysate (sham-operated tissue or peri-infarct tissue 2 h after tMCAO; also after tMCAO in mice given AAV CasRx-Ripk1-Nsf or CasRx control); 4 ug antibody at 4 C overnight, protein G agarose beads 2 h at 4 C, three washes with lysis buffer; blots for RIPK1 and NSF

In the case of “N-ethylmaleimide-sensitive fusion ATPase (NSF) (from UniProt P46460 1-744)”, the binding is reported as “binds”.
